Source: PubChem BioAssay AID540276 (National Center for Advancing Translational Sciences (NCATS), 2011)
The campaign covered roughly 300,000 compounds. About 5,400 (1.8%) were called active. This list was built around the results that the source calls inconclusive (neither active nor inactive); the mix of calls is not that of the screen. Calls come from the whole dose curve; tested in HEK293 cells. Potencies of inconclusive entries are doubtful fits and often do not repeat.

test: qHTS for inhibitors of binding or entry into cells for Marburg Virus; settings: Marburg virus pseudotyped entry inhibition, cell reporter; series mostly up to 37.8 µM
Potency is the fitted concentration of half-maximal effect.

Row | SMILES | Potency
1 | COc1cc(/C=C2\C(=N)N3N=C(S(C)(=O)=O)SC3=NC2=O)cc(OC)c1OCCOc1cccc(C)c1 | inconclusive: 282 nM [inhibitor, full curve, poor fit]
2 | O=C(Nc1ccc(-c2nc3ccccc3[nH]2)cc1)c1ccccc1NS(=O)(=O)c1ccc(F)cc1 | inconclusive: 23100 nM [activator, single point]
3 | COc1cc(NS(=O)(=O)c2ccc(NC(=S)NC(=O)c3sc4ccccc4c3Cl)cc2)nc(OC)n1 | inconclusive: 708 nM [activator, single point]
